Laboratory results reported in article PMC7968321.
No constants are given. Whether binding was seen depends on the method and setting. Binding seen in cells or lysates may run through a third protein. Some entries that bind do so weakly or less than the wild type.

Biological target: T1, Human lemur tyrosine kinase 3 (LMTK3) (human) (UniProt Q96Q04)
T1 sequence: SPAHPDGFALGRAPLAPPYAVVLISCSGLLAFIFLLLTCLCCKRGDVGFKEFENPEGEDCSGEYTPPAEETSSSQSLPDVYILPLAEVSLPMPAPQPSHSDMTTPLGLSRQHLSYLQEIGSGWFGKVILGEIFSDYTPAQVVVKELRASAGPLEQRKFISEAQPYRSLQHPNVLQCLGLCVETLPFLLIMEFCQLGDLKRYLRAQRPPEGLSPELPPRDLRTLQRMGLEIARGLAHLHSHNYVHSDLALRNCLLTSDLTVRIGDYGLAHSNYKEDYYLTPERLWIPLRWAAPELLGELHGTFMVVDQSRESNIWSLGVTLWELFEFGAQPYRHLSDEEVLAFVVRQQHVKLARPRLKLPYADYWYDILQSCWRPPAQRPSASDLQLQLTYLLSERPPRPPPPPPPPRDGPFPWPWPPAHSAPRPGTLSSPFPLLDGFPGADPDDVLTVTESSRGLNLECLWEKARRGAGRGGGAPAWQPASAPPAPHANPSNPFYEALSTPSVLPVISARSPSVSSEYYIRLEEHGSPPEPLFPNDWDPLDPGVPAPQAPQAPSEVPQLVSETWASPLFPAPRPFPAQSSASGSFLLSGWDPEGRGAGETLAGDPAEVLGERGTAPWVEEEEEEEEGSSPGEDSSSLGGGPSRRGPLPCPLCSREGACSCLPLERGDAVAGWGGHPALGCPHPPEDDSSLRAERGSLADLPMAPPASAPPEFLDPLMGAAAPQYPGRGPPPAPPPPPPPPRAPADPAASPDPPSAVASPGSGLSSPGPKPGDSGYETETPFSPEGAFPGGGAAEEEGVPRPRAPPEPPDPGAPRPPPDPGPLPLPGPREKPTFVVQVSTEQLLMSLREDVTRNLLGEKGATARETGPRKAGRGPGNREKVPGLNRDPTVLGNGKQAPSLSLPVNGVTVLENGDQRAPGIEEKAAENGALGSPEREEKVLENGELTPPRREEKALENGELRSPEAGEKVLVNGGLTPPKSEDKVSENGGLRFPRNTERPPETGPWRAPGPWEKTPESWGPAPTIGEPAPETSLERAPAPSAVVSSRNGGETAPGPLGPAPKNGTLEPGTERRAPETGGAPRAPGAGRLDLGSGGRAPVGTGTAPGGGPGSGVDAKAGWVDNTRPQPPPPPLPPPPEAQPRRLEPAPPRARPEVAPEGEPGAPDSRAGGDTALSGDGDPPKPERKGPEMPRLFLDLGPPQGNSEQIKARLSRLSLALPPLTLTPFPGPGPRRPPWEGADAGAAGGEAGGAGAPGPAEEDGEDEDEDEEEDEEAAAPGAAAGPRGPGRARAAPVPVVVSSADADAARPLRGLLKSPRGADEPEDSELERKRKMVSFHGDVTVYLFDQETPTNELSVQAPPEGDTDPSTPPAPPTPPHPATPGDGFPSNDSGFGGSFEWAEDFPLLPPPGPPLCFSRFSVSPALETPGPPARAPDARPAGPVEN
Assay: co-IP; LMTK3 or NUSAP1 immunoprecipitated from MCF7 cells stably overexpressing LMTK3; complexes immunoblotted for LMTK3 and NUSAP1

B1: Nucleolar and spindle associated protein 1 (NUSAP1) (protein, UniProt Q9BXS6 1-441)
chain: MIIPSLEELDSLKYSDLQNLAKSLGLRANLRATKLLKALKGYIKHEARKGNENQDESQTSASSCDETEIQISNQEEAERQPLGHVTKTRRRCKTVRVDPDSQQNHSEIKISNPTEFQNHEKQESQDLRATAKVPSPPDEHQEAENAVSSGNRDSKVPSEGKKSLYTDESSKPGKNKRTAITTPNFKKLHEAHFKEMESIDQYIERKKKHFEEHNSMNELKQQPINKGGVRTPVPPRGRLSVASTPISQRRSQGRSCGPASQSTLGLKGSLKRSAISAAKTGVRFSAATKDNEHKRSLTKTPARKSAHVTVSGGTPKGEAVLGTHKLKTITGNSAAVITPFKLTTEATQTPVSNKKPVFDLKASLSRPLNYEPHKGKLKPWGQSKENNYLNQHVNRINFYKKTYKQPHLQTKEEQRKKREQERKEKKAKVLGMRRGLILAED
binding: binds
